{"source": "PubChem BioAssay AID1159579 (Peter MacCallum Cancer Centre, 2015)", "screen": "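Follow-up screen seeking modulators of motility in lymphatic endothelial cells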 (follow-up of hits)", "cells": "human dermal lymphatic endothelial cells", "reagent": "single siRNA against human genes, 25 nM", "read-out": "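Scratch wound imaging measuring area filled by moving cells plus nuclei number, averaged over two wells and scaled to mock-transfected controls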", "direction": "migration relative to mock: higher = more migration into the scratch; mean nuclei count: higher = more cells remaining", "call rule": "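Called active when the migration ratio is 0.6 or lower (impaired) or 1.3 or higher (accelerated), but inactive whenever the mean nuclei count falls under 3300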", "meaning of the calls": "active = migration changed (impaired or accelerated); inactive = no migration change, or too few cells", "note": "This is one part, drawn at random, of about 2,000 reagents. Of all reagents, 549 (27%) were called active. 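Some migration ratios are negative; siRNAs with too few cells are inactive whatever their migration ratio.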 The numbers tell different reagents against one gene apart. The record does not give: the time to read-out."}
{"gene symbol": "CHST8", "reagent no.": 1, "migration relative to mock": 0.76, "migration and cell number class": "no change in migration or cell number", "mean nuclei count": 6086, "outcome": "inactive"}
{"gene symbol": "CHST8", "reagent no.": 2, "migration relative to mock": 0.21, "migration and cell number class": "migration reduced", "mean nuclei count": 4928, "outcome": "active"}
{"gene symbol": "CHST8", "reagent no.": 3, "migration relative to mock": 0.48, "migration and cell number class": "migration reduced", "mean nuclei count": 4720, "outcome": "active"}
{"gene symbol": "CHST8", "reagent no.": 4, "migration relative to mock": 0.69, "migration and cell number class": "no change in migration or cell number", "mean nuclei count": 6102, "outcome": "inactive"}
{"gene symbol": "TCF12", "reagent no.": 1, "migration relative to mock": 0.52, "migration and cell number class": "migration reduced", "mean nuclei count": 5218, "outcome": "active"}
{"gene symbol": "TCF12", "reagent no.": 2, "migration relative to mock": 0.86, "migration and cell number class": "no change in migration or cell number", "mean nuclei count": 6258, "outcome": "inactive"}
{"gene symbol": "TCF12", "reagent no.": 3, "migration relative to mock": 0.74, "migration and cell number class": "no change in migration or cell number", "mean nuclei count": 6145, "outcome": "inactive"}
{"gene symbol": "TCF12", "reagent no.": 4, "migration relative to mock": 0.82, "migration and cell number class": "no change in migration or cell number", "mean nuclei count": 6154, "outcome": "inactive"}
{"gene symbol": "STK11IP", "reagent no.": 1, "migration relative to mock": 0.46, "migration and cell number class": "migration reduced", "mean nuclei count": 3554, "outcome": "active"}
{"gene symbol": "STK11IP", "reagent no.": 2, "migration relative to mock": 0.88, "migration and cell number class": "no change in migration or cell number", "mean nuclei count": 4490, "outcome": "inactive"}
{"gene symbol": "STK11IP", "reagent no.": 3, "migration relative to mock": 1.06, "migration and cell number class": "no change in migration or cell number", "mean nuclei count": 4196, "outcome": "inactive"}
{"gene symbol": "STK11IP", "reagent no.": 4, "migration relative to mock": 0.88, "migration and cell number class": "no change in migration or cell number", "mean nuclei count": 4710, "outcome": "inactive"}
{"gene symbol": "CAMK1", "reagent no.": 1, "migration relative to mock": 0.58, "migration and cell number class": "migration reduced", "mean nuclei count": 5975, "outcome": "active"}
{"gene symbol": "CAMK1", "reagent no.": 2, "migration relative to mock": 0.91, "migration and cell number class": "no change in migration or cell number", "mean nuclei count": 5986, "outcome": "inactive"}
{"gene symbol": "CAMK1", "reagent no.": 3, "migration relative to mock": 0.93, "migration and cell number class": "no change in migration or cell number", "mean nuclei count": 5280, "outcome": "inactive"}
{"gene symbol": "CAMK1", "reagent no.": 4, "migration relative to mock": 0.84, "migration and cell number class": "no change in migration or cell number", "mean nuclei count": 6386, "outcome": "inactive"}
{"gene symbol": "THSD4", "reagent no.": 1, "migration relative to mock": 0.82, "migration and cell number class": "no change in migration or cell number", "mean nuclei count": 5550, "outcome": "inactive"}
{"gene symbol": "THSD4", "reagent no.": 2, "migration relative to mock": -0.15, "migration and cell number class": "too few cells; migration not scored", "mean nuclei count": 2892, "outcome": "inactive"}
{"gene symbol": "THSD4", "reagent no.": 3, "migration relative to mock": 0.97, "migration and cell number class": "no change in migration or cell number", "mean nuclei count": 5786, "outcome": "inactive"}
{"gene symbol": "THSD4", "reagent no.": 4, "migration relative to mock": 1.02, "migration and cell number class": "no change in migration or cell number", "mean nuclei count": 6161, "outcome": "inactive"}
{"gene symbol": "ABCA2", "reagent no.": 1, "migration relative to mock": 0.85, "migration and cell number class": "no change in migration or cell number", "mean nuclei count": 6836, "outcome": "inactive"}
{"gene symbol": "ABCA2", "reagent no.": 2, "migration relative to mock": 0.37, "migration and cell number class": "migration reduced", "mean nuclei count": 5371, "outcome": "active"}
{"gene symbol": "ABCA2", "reagent no.": 3, "migration relative to mock": 0.3, "migration and cell number class": "migration reduced", "mean nuclei count": 3983, "outcome": "active"}
{"gene symbol": "ABCA2", "reagent no.": 4, "migration relative to mock": 0.69, "migration and cell number class": "no change in migration or cell number", "mean nuclei count": 4330, "outcome": "inactive"}
{"gene symbol": "CBR1", "reagent no.": 1, "migration relative to mock": 0.34, "migration and cell number class": "migration reduced", "mean nuclei count": 3512, "outcome": "active"}
{"gene symbol": "CBR1", "reagent no.": 2, "migration relative to mock": 0.64, "migration and cell number class": "no change in migration or cell number", "mean nuclei count": 6766, "outcome": "inactive"}
{"gene symbol": "CBR1", "reagent no.": 3, "migration relative to mock": 0.96, "migration and cell number class": "no change in migration or cell number", "mean nuclei count": 4814, "outcome": "inactive"}
{"gene symbol": "CBR1", "reagent no.": 4, "migration relative to mock": -0.46, "migration and cell number class": "migration reduced", "mean nuclei count": 3837, "outcome": "active"}
{"gene symbol": "SDR9C7", "reagent no.": 1, "migration relative to mock": 1.1, "migration and cell number class": "no change in migration or cell number", "mean nuclei count": 6330, "outcome": "inactive"}
{"gene symbol": "SDR9C7", "reagent no.": 2, "migration relative to mock": 0.95, "migration and cell number class": "no change in migration or cell number", "mean nuclei count": 5974, "outcome": "inactive"}
{"gene symbol": "SDR9C7", "reagent no.": 3, "migration relative to mock": 0.73, "migration and cell number class": "no change in migration or cell number", "mean nuclei count": 4836, "outcome": "inactive"}
{"gene symbol": "SDR9C7", "reagent no.": 4, "migration relative to mock": 1.14, "migration and cell number class": "no change in migration or cell number", "mean nuclei count": 5648, "outcome": "inactive"}
{"gene symbol": "PAQR5", "reagent no.": 1, "migration relative to mock": 0.78, "migration and cell number class": "no change in migration or cell number", "mean nuclei count": 6336, "outcome": "inactive"}
{"gene symbol": "PAQR5", "reagent no.": 2, "migration relative to mock": 0.46, "migration and cell number class": "migration reduced", "mean nuclei count": 4680, "outcome": "active"}
{"gene symbol": "PAQR5", "reagent no.": 3, "migration relative to mock": 1.06, "migration and cell number class": "no change in migration or cell number", "mean nuclei count": 4815, "outcome": "inactive"}
{"gene symbol": "PAQR5", "reagent no.": 4, "migration relative to mock": 0.64, "migration and cell number class": "no change in migration or cell number", "mean nuclei count": 4539, "outcome": "inactive"}

In a second layout: 5 of the entries above
gene symbol | reagent no. | migration relative to mock | migration and cell number class | mean nuclei count | outcome
CHST8 | 2 | 0.21 | migration reduced | 4928 | active
CHST8 | 3 | 0.48 | migration reduced | 4720 | active
CHST8 | 4 | 0.69 | no change in migration or cell number | 6102 | inactive
TCF12 | 1 | 0.52 | migration reduced | 5218 | active
TCF12 | 2 | 0.86 | no change in migration or cell number | 6258 | inactive
